# Hit rate of the full screen: of about 320,000 compounds, about 22,000 (6.9%) were called active. The shares of active, inactive and inconclusive entries below differ from those in the screen. Calls come from the whole dose curve; as a rule, active = well fitted inhibition curve with a large enough effect; inconclusive = small, poorly fitted or top-dose-only effect, or another doubt; inactive = no such curve, though single readings can be large or run the other way. Potencies of inconclusive entries are doubtful fits and often do not repeat.
# Experiment: Primary qHTS for delayed death inhibitors of the malarial parasite plastid, 96 hour incubation
# Conditions: P. falciparum luciferase reporter growth; series mostly up to 28.7 µM
# Method in brief: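 Infected RBCs, 2% Hct / 0.05% parasitemia final; luciferase-reporter P. falciparum; cpd 96 h, 37 C, 5% CO2; luciferase detection reagent; luminescence.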
# Potency is the fitted concentration of half-maximal effect.
row,Compound,Potency
1,O=C(CN1CC(=O)Nc2ccccc21)NCCc1ccc(Cl)cc1Cl,"inconclusive: 18.5 µM [inhibitor, single point]"
2,CCOC(=O)C1CCN(C(=O)c2cc3cc4ccc(OC)cc4nc3o2)CC1,"inconclusive: 10.4 µM [inhibitor, single point]"
3,Cc1cc(OC(=O)c2ccccc2C(F)(F)F)c([N+](=O)[O-])c(=O)[nH]1,inactive
4,CC(C)N(C(=O)CSc1nnc(CSc2ncccn2)n1C)C(C)C,"inconclusive: 16.5 µM [inhibitor, partial curve, poor fit]"
5,CC(=O)NCCOc1nc(N(C)C)nc(N2CCCCC2)n1,inactive
6,CC(=O)OCC(OC(C)=O)C(OC(C)=O)C(OC(C)=O)C(=O)Nc1cccc(C)c1 (centres undefined),inactive
7,CC(NC1CCCC1)c1ccccc1 (centres undefined),"inconclusive: 18.5 µM [inhibitor, single point]"
8,O=C(NCc1ccccn1)c1c(O)c2cccc3c2n(c1=O)CC3,"inconclusive: 11.7 µM [inhibitor, single point]"
9,O=C(NC1CCCCC1)C(c1ccncc1)N(Cc1ccc(F)cc1)C(=O)c1ccccn1 (centres undefined),inactive
10,CCN(CC)C(=O)C1CCCN(C(=O)Nc2ccc3nsnc3c2)C1 (centres undefined),"inconclusive: 18.5 µM [inhibitor, single point]"
11,CCn1ncc(/C=N\NC(=O)c2csc3ccccc23)c1C,inactive
12,O=C(c1ccc(Cl)nc1)c1cccs1,inactive
13,CC1=C(C(=O)Nc2ccccc2C(F)(F)F)C(c2sccc2C)NC(=S)N1 (centres undefined),inactive
14,COc1ccc(F)cc1S(=O)(=O)Nc1ccc2c(c1)OCCO2,"inconclusive: 5.22 µM [inhibitor, partial curve, poor fit]"
15,CN(CC(=O)N1CCc2ccccc2C1)c1ccccc1,inactive
16,COc1ccc(CC(=O)Nc2cccc(S(=O)(=O)N3CCCCCC3)c2)cc1OC,"inconclusive: 10.4 µM [inhibitor, single point]"
17,Cc1ccc2nc(/C(C#N)=C\c3ccc(N4CCCCC4)c([N+](=O)[O-])c3)[nH]c2c1,"inconclusive: 18.5 µM [inhibitor, single point]"
18,COc1ccc(O)c(C(C)(C)C)c1,inactive
19,CCOc1ccc(NC(=O)C(Cc2ccccc2)N2C(=O)c3cccc4cccc(c34)C2=O)cc1 (centres undefined),"inconclusive: 1.47 µM [inhibitor, full curve, poor fit]"
20,Cc1ccsc1C1Nc2ccc3ncccc3c2C2=C1C(=O)CCC2 (centres undefined),active: 4.65 µM
21,Nc1c(C(=O)Nc2ccc3c(c2)OCCO3)nnn1Cc1cccc(Br)c1,"inconclusive: 1.17 µM [inhibitor, partial curve, poor fit]"
22,COc1cc(C)ccc1NC(=O)Cc1csc(NC(=O)Nc2ccccc2OC)n1,"inconclusive: 18.5 µM [inhibitor, single point]"
23,COc1cc(OC)cc(C(=O)Nn2cnnc2)c1,inactive

row,Compound,Potency
1,COc1ccc(-n2cnc3cc(NS(=O)(=O)c4ccc(C)cc4)ccc32)cc1,"inconclusive: 14.7 µM [inhibitor, single point]"
2,O=C(CNC(=O)c1cccc(Br)c1)N/N=C/c1cn[nH]c1-c1ccccc1,"inconclusive: 0.415 µM [inhibitor, partial curve, poor fit]"
3,CCOc1c(Br)cc(CNCc2cccs2)cc1OC,"inconclusive: 11.7 µM [inhibitor, single point]"
4,Clc1ccc(-c2ccccc2)nn1,"inconclusive: 0.0117 µM [inhibitor, full curve, poor fit]"
5,COc1ccc(CNc2nc3ccccc3n2C(C)C)c(O)c1,"inconclusive: 5.22 µM [inhibitor, partial curve, poor fit]"
6,CCOC(=O)c1ccc(Nc2nc(N3CCOCC3)nc(N3CCOCC3)n2)cc1,"inconclusive: 11.7 µM [inhibitor, partial curve, poor fit]"
7,O=C(CC12CC3CC(CC(C3)C1)C2)NC(=S)NCc1ccco1,"inconclusive: 18.5 µM [inhibitor, single point]"
8,CC1C/C(=N/N2C(=O)CSC2=S)CC(C)(C)C1 (centres undefined),active: 13.1 µM
9,CCc1nc2oc3cc(OC)ccc3c(=O)c2c(=O)n1Cc1ccco1,"inconclusive: 1.85 µM [inhibitor, single point]"
10,C=C(C)C(=O)OCC(O)COc1ccc(C(C)(C)c2ccc(OCC(O)COC(=O)C(=C)C)cc2)cc1 (centres undefined),"inconclusive: 8.28 µM [inhibitor, partial curve]"
11,COc1ccc(NC(=S)NNC(=S)Nc2cccc(C(F)(F)F)c2)cc1,"inconclusive: 1.47 µM [inhibitor, full curve]"
12,CC(CN(C)Cc1ccccc1)OC(=O)C1COc2ccccc2O1 (centres undefined),"inconclusive: 20.8 µM [inhibitor, partial curve, poor fit]"
13,COc1ccccc1NC(=S)NC(NC(=O)CC(C)C)C(Cl)(Cl)Cl (centres undefined),"inconclusive: 1.85 µM [inhibitor, full curve]"
14,CCC(=NCc1ccccc1)C1=C(O)C(C(=O)OC)C(C)(C)CC1=O (centres undefined),active: 11.7 µM
15,CCC(=O)Nc1ccc2c(c1)ncn2-c1ccc(OC)cc1,inactive
16,O=C(CCN1CCOCC1)Nc1ccc2c(c1)N(C(=O)CN1CCOCC1)c1ccccc1CC2,inactive
17,Cc1c(NC(=O)Nc2cccs2)cccc1[N+](=O)[O-],inactive
18,Cn1c(SCc2ccc([N+](=O)[O-])cc2)nc2c(c1=O)SCC2,"inconclusive: 3.7 µM [inhibitor, partial curve, poor fit]"
19,CC1CCCCC1NC(=O)Cn1c(=O)oc2cc(S(=O)(=O)N3CCCC3)ccc21 (centres undefined),active: 10.4 µM
20,CC(=O)Nc1ccc2nc(NC(=O)COc3ccccc3C)sc2c1,"inconclusive: 18.5 µM [inhibitor, single point]"
21,COc1ccc(CNC(=O)c2cc3cccc(O)c3oc2=N)cc1,"inconclusive: 18.5 µM [inhibitor, single point]"
22,COC(=O)c1cc(C(=O)OCC(=O)NNC(=O)c2cccs2)cc([N+](=O)[O-])c1,inactive
23,Cc1cc(C)cc(NCc2cc3c(cc2[N+](=O)[O-])OCO3)c1,"inconclusive: 0.329 µM [inhibitor, full curve, poor fit]"

# Copied from the listing, four compounds:
row,Compound,Potency
12,CC(CN(C)Cc1ccccc1)OC(=O)C1COc2ccccc2O1 (centres undefined),"inconclusive: 20.8 µM [inhibitor, partial curve, poor fit]"
13,COc1ccccc1NC(=S)NC(NC(=O)CC(C)C)C(Cl)(Cl)Cl (centres undefined),"inconclusive: 1.85 µM [inhibitor, full curve]"
14,CCC(=NCc1ccccc1)C1=C(O)C(C(=O)OC)C(C)(C)CC1=O (centres undefined),active: 11.7 µM
15,CCC(=O)Nc1ccc2c(c1)ncn2-c1ccc(OC)cc1,inactive

# Additional entries follow.

row,Compound,Potency
1,Cc1ccc(CSc2nnc(CCNC(=O)OC(C)(C)C)o2)cc1,"inconclusive: 18.5 µM [inhibitor, partial curve, poor fit]"
2,CCN(c1ccccc1)P(=O)(Nc1ccccc1)Nc1ccccc1,"inconclusive: 11.7 µM [inhibitor, single point]"
3,COc1ccc(CCNc2nc(-c3sc(C)nc3C)cs2)cc1OC,"inconclusive: 11.7 µM [inhibitor, single point]"
4,CC12CC3(C)CC(C)(C1)CC(C(=O)NC(=S)N1CCCC1)(C2)C3,"inconclusive: 18.5 µM [inhibitor, single point]"
5,COc1ccccc1C(=O)NC(CCSC)C(=O)NCC(c1ccccc1OC)N1CCCC1 (centres undefined),inactive
6,O=C(c1ccccn1)N1CCN(S(=O)(=O)c2ccccc2)CC1,inactive
7,CCOc1ccc2nc(N3CCC(C(=O)N4CCN(c5ncccn5)CC4)CC3)sc2c1,"inconclusive: 11.7 µM [inhibitor, single point]"
8,CC(C)Cc1ccc(-c2cc(=O)[nH][nH]2)cc1,"inconclusive: 0.0029 µM [inhibitor, partial curve, poor fit]"
9,CC(C)c1ccc(NC(=O)c2n[nH]c(=O)c3ccccc23)cc1,active: 8.28 µM
10,CCOC(=O)N1CCN(C(=O)c2cc3c(-c4cccc(OC)c4)nn(C)c3s2)CC1,inactive
11,CC(C(=O)NC1C=CS(=O)(=O)C1)N1C(=O)/C(=C/c2cccc(Cl)c2)SC1=S (centres undefined),inactive
12,CON(C)S(=O)(=O)c1cccc(C(=O)Nc2ccc(S(=O)(=O)NC3=NCCCCC3)cc2)c1,"inconclusive: 6.57 µM [inhibitor, partial curve]"
13,Cc1noc(C)c1COC(=O)[C@H](C)NS(=O)(=O)c1ccc(Cl)c(Cl)c1,"inconclusive: 9.28 µM [inhibitor, partial curve, poor fit]"
14,CCOC(=O)C1=C(C)N=c2s/c(=C3/C(=O)Nc4ccccc43)c(=O)n2C1c1ccc(C)cc1 (centres undefined),"inconclusive: 1.85 µM [inhibitor, full curve, poor fit]"
15,COc1ccc(N2CCN(C(=O)c3ccc(CS(=O)Cc4ccc(Cl)cc4)o3)CC2)cc1 (centres undefined),"inconclusive: 18.5 µM [inhibitor, single point]"
16,CCCCCC(=O)N[C@@H](c1ccccc1)[C@@H](O)C(=O)O[C@H]1C[C@@]2(O)[C@@H](OC(=O)c3ccccc3)C3[C@](C)(C(=O)[C@H](O)C(=C1C)C2(C)C)[C@@H](OC1OCC(O)C(O)C1O)C[C@H]1OC[C@@]31OC(C)=O (some centres undefined),active: 0.165 µM
17,CCN(Cc1ccccc1)C(=O)COC(=O)c1cc(=O)[nH]c2ccccc12,inactive
18,COc1ccc(-c2cn3c(C)c(C(=O)Nc4cc(NC(C)=O)ccc4OC)sc3n2)cc1,"inconclusive: 11.7 µM [inhibitor, partial curve]"
19,CCC(c1nnnn1Cc1ccco1)N(Cc1ccccc1OC)Cc1cc2cc(C)ccc2[nH]c1=O (centres undefined),"inconclusive: 18.5 µM [inhibitor, single point]"
20,O=C(CSc1ccccn1)Nc1ccc2[nH]c(=O)[nH]c2c1,inactive
21,CC(C(N)=O)N1CC(c2ccccc2)CC1=O (centres undefined),inactive
22,NC(=O)C1CCN(C(=O)C23CC4CC(CC(C4)C2)C3)CC1,"inconclusive: 18.5 µM [inhibitor, single point]"
23,NNC(=O)C(=O)/C=C1\NC2(CCCC2)Cc2ccccc21,"inconclusive: 18.5 µM [inhibitor, single point]"

# — PubChem BioAssay AID504834 (National Center for Advancing Translational Sciences (NCATS), 2011)
